From patent US5578639A, “PLA2 inhibitors and their use for inhibition of intestinal cholesterol absorption” (Warner-Lambert Company, priority 1995, dated 1996)
The name of at least one read-out is uncertain.

System: Caco-2 cells
Assay: Caco-2 phospholipase A2-dependent cholesterol absorption, time course
Assay type: cell-based, human
Details: caco-2, 720 min

Question: Which results are given for `CCCCCCCC/C=C\CCCCCCCC(=O)OC(COC(=O)CCCCCCCCCCCCCCC)COP(=O)([O-])OCC[N+](C)(C)C` (centres unmarked) [phosphatidylcholine, 1-palmitoyl-2-oleoyl phosphatidylcholine]?
Answer: cell [14C]cholesteryl ester relative to incubations without micellar phospholipid: 7%; cell-associated free [14C]cholesterol relative to incubations without PC: at most 45%
